Measurements taken from publication PMC3009721.

By UniProt entry, the sequences of proteins in these tests, tags left out. Where a name states a change or a piece, a line headed by the entry shows the natural chain unless it says otherwise.
UniProt Q9FXE4: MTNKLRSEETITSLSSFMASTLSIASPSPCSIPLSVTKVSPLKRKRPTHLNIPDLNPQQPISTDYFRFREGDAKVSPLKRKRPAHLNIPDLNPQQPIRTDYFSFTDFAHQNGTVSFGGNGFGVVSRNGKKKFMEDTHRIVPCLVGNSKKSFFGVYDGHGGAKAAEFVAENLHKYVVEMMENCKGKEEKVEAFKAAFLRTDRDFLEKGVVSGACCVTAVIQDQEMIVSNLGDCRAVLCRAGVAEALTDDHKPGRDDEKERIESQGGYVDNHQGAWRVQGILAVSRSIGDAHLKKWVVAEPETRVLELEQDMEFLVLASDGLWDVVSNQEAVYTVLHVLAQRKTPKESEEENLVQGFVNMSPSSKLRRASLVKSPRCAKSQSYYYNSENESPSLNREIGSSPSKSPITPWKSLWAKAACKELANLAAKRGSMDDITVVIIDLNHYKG
UniProt Q39024: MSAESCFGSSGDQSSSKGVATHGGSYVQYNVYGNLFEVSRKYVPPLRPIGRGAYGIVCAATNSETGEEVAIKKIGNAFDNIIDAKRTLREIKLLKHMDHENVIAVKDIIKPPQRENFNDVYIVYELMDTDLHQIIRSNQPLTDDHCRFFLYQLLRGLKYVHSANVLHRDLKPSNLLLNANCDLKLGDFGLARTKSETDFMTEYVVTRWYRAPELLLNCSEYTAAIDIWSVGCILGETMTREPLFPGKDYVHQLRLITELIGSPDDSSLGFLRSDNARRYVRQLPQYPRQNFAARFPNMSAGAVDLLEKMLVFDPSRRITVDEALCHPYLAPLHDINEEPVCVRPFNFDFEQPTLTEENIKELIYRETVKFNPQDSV
UniProt Q39026: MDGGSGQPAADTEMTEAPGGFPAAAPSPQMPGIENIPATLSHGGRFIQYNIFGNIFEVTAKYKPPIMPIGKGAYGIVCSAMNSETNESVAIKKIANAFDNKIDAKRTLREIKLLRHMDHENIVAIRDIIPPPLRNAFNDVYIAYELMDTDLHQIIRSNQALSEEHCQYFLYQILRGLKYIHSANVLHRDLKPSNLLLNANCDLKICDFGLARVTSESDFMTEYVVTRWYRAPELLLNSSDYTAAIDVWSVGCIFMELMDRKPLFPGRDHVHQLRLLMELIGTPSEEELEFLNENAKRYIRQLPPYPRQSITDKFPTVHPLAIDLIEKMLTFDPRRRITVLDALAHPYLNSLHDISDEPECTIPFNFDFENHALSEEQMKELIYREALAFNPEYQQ

Key:
[1] = target: YFPntd-AP2C4 (Arabidopsis) (UniProt Q9FXE4); test: split reporter; split-YFP BiFC; YFPntd-PP2Cs co-transfected with YFPctd-MAPKs in Arabidopsis suspension culture protoplasts, reconstituted fluorescence detected by microscopy
[2] = target: AP2C4 in pBD-GAL4cam (Arabidopsis) (UniProt Q9FXE4); test: two-hybrid; pBD-GAL4cam-PP2C with pAD-MAPK vectors cotransformed in yeast strain PJ-69A (pJ694A in the legend); growth on selective plates
[3] = target: YFPntd-AP2C2 (Arabidopsis); test: split reporter; split-YFP BiFC; YFPntd-PP2Cs co-transfected with YFPctd-MAPKs in Arabidopsis suspension culture protoplasts, reconstituted fluorescence detected by microscopy

In the case of “YFPctd-MPK4 (from UniProt Q39024 1-376) (enzyme)”, the binding [1] is reported as “no binding”.

With “YFPctd-MPK6 (from UniProt Q39026 1-395) (enzyme)” the binding [1] was “binds”.

For “pAD-MPK6 (from UniProt Q39026 1-395) (enzyme)”, the binding [2] was “binds”.

B1: YFPctd-MPK3 (enzyme, UniProt Q39023 1-370)
chain: MNTGGGQYTDFPAVETHGGQFISYDIFGSLFEITSKYRPPIIPIGRGAYGIVCSVLDTETNELVAMKKIANAFDNHMDAKRTLREIKLLRHLDHENIIAIRDVVPPPLRRQFSDVYISTELMDTDLHQIIRSNQSLSEEHCQYFLYQLLRGLKYIHSANIIHRDLKPSNLLLNANCDLKICDFGLARPTSENDFMTEYVVTRWYRAPELLLNSSDYTAAIDVWSVGCIFMELMNRKPLFPGKDHVHQMRLLTELLGTPTESDLGFTHNEDAKRYIRQLPNFPRQPLAKLFSHVNPMAIDLVDRMLTFDPNRRITVEQALNHQYLAKLHDPNDEPICQKPFSFEFEQQPLDEEQIKEMIYQEAIALNPTYG
B1 was tested, and the binding [1] was “binds” and the binding [3] was “binds”.

B2: pAD-MPK3 (enzyme, UniProt Q39023 1-370)
chain: MNTGGGQYTDFPAVETHGGQFISYDIFGSLFEITSKYRPPIIPIGRGAYGIVCSVLDTETNELVAMKKIANAFDNHMDAKRTLREIKLLRHLDHENIIAIRDVVPPPLRRQFSDVYISTELMDTDLHQIIRSNQSLSEEHCQYFLYQLLRGLKYIHSANIIHRDLKPSNLLLNANCDLKICDFGLARPTSENDFMTEYVVTRWYRAPELLLNSSDYTAAIDVWSVGCIFMELMNRKPLFPGKDHVHQMRLLTELLGTPTESDLGFTHNEDAKRYIRQLPNFPRQPLAKLFSHVNPMAIDLVDRMLTFDPNRRITVEQALNHQYLAKLHDPNDEPICQKPFSFEFEQQPLDEEQIKEMIYQEAIALNPTYG
For B2, the binding [2] was “binds”.

These are yes or no findings as the source states them, for the method shown. Binding can be weak; no strength is given. For part of these data: Binding seen in cells or lysates may run through a third protein.
